Measurements reported in the supplement of paper PMC9233669.
Variants at the floor of the assay are shown more often than the library holds them.

Tests used:
biotinyl-Trp-oxazolone = assay: self-aminoacylation, catalytic enhancement (BWO) (fold over background); higher = more active; k-Seq, kA / k0A0; sequences stand for … in GGGAAUGGAUCCACAUCUACGAAUUC…UUCACUGCAGACUUGACGAAGCUG
Summary of the method: (§1)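 The uncatalyzed rate is the low-activity peak of a bimodal Gaussian fit, and catalytic enhancement is median kA divided by it. The kA values came from pseudo-first-order fits, with 1000 bootstraps, of per-sequence fraction reacted measured by streptavidin capture, triplicate qPCR and Illumina sequencing. Mutagenized RNA pools with a 21-nt variable region (0.43 μM) were reacted with each biotinyl-aminoacyl-oxazolone at 2–1250 μM in 50 μL HEPES/NaCl/KCl/MgCl2/CaCl2 buffer with 5% acetonitrile, pH 6.9–7.0, for 90 minutes at room temperature.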

biotinyl-Ile-oxazolone = assay: self-aminoacylation, catalytic enhancement (BIO) (fold over background); higher = more active; k-Seq, kA / k0A0; sequences stand for … in GGGAAUGGAUCCACAUCUACGAAUUC…UUCACUGCAGACUUGACGAAGCUG
Summary of the method: as §1

biotinyl-Val-oxazolone = assay: self-aminoacylation, catalytic enhancement (BVO) (fold over background); higher = more active; k-Seq, kA / k0A0; sequences stand for … in GGGAAUGGAUCCACAUCUACGAAUUC…UUCACUGCAGACUUGACGAAGCUG
Summary of the method: as §1

biotinyl-Leu-oxazolone = assay: self-aminoacylation, catalytic enhancement (BLO) (fold over background); higher = more active; k-Seq, kA / k0A0; sequences stand for … in GGGAAUGGAUCCACAUCUACGAAUUC…UUCACUGCAGACUUGACGAAGCUG
Summary of the method: as §1

biotinyl-Met-oxazolone = assay: self-aminoacylation, catalytic enhancement (BMO) (fold over background); higher = more active; k-Seq, kA / k0A0; sequences stand for … in GGGAAUGGAUCCACAUCUACGAAUUC…UUCACUGCAGACUUGACGAAGCUG
Summary of the method: as §1

Sequence | self-aminoacylation (biotinyl-Trp-oxazolone) | self-aminoacylation (biotinyl-Ile-oxazolone) | self-aminoacylation (biotinyl-Val-oxazolone) | self-aminoacylation (biotinyl-Leu-oxazolone) | self-aminoacylation (biotinyl-Met-oxazolone)
ACACACUUCAAGCAAUCGAUC [Fam1B.1 aminoacylation ribozyme variant] | 0.844 | 0.815 | 0.971 | 0.665 | 0.492
AAGUUUCAUAAUAGUCGCAAG [Fam3.1 aminoacylation ribozyme variant] | 1.59 | 1.88 | 1.36 | 1.33 | 1.67
GUUCACCUAGGUCAUCGGAUG [Fam2.2 aminoacylation ribozyme variant] | 0.5 | 0.815 | 0.979 | 0.728 | 0.701
AAGUUUGUUCAUAGUCGCAAG [Fam3.1 aminoacylation ribozyme variant] | 1.5 | 1.42 | 1.43 | 1.32 | 1.13
AUUCAGCUAGGUCAUCGUGUG [Fam2.2 aminoacylation ribozyme variant] | 0.917 | 0.644 | 0.842 | 1 | 0.779
CGGCACUUCAAGCAAUCGGUC [Fam1B.1 aminoacylation ribozyme variant] | 20.1 | 1.4 | 1.61 | 1.87 | 1.5
CCAGACUUCAAGCAACCGGUC [Fam1B.1 aminoacylation ribozyme variant] | 2 | 1.47 | 1.36 | 1.02 | 0.698
AUUCAGCUAGAUCAUCGGGUG [Fam2.2 aminoacylation ribozyme variant] | 3.9 | 2.71 | 2.85 | 4.61 | 4.04
AUUCACCUAGGUCAGCGGGUG [Fam2.2 aminoacylation ribozyme variant] | 4.21 | 3.3 | 3.2 | 5.95 | 4.39
AAGUCUGCUUAUAGUCGCAAG [Fam3.1 aminoacylation ribozyme variant] | 0.87 | 0.895 | 0.822 | 1.25 | 1.18
AAAUUUGCUAAUAGUCGUAAG [Fam3.1 aminoacylation ribozyme variant] | 4.02 | 1.44 | 1.46 | 1.27 | 1.39
AAGUUUGCUAAAAGCCGCAAG [Fam3.1 aminoacylation ribozyme variant] | 1.08 | 0.613 | 0.689 | 0.63 | 0.604
CUAGUUCAGACAAUCGGUCUG [Fam1A.1 aminoacylation ribozyme variant] | 0.815 | 0.986 | 1.09 | 1.14 | 1.1
CUACUGCAAACACUCGGUCUG [Fam1A.1 aminoacylation ribozyme variant] | 1.55 | 1.29 | 1.43 | 1.49 | 1.64
AUUACCUUGGUCAUCGCGUGA [Fam2.1 aminoacylation ribozyme variant] | 19.5 | 7.37 | 9.23 | 19.2 | 17.3
AUUCACUGAGGUCAUCGGGUG [Fam2.2 aminoacylation ribozyme variant] | 5.64 | 4.51 | 4.37 | 9.09 | 7.22
AUUUCCAUGGUCAUCGAGUGA [Fam2.1 aminoacylation ribozyme variant] | 12 | 5.22 | 5.09 | 9.67 | 9.56
AAGUUUGCUAAUAGUGGCAAA [Fam3.1 aminoacylation ribozyme variant] | 1.24 | 1.09 | 1.04 | 0.789 | 0.891
ACGUUUGCUAAUGGUCGCAAG [Fam3.1 aminoacylation ribozyme variant] | 1.47 | 1.22 | 1.22 | 1.25 | 1.72

Sequence | self-aminoacylation (biotinyl-Trp-oxazolone) | self-aminoacylation (biotinyl-Ile-oxazolone) | self-aminoacylation (biotinyl-Val-oxazolone) | self-aminoacylation (biotinyl-Leu-oxazolone) | self-aminoacylation (biotinyl-Met-oxazolone)
AUUCACCUAGGUGAUCGGGUC [Fam2.2 aminoacylation ribozyme variant] | 0.807 | 1.29 | 1.46 | 0.971 | 1.14
AUUCACGUAGGUCAUCGGGUC [Fam2.2 aminoacylation ribozyme variant] | 1.18 | 1.7 | 2.28 | 1.91 | 2.19
AUUACCCUGUUCAUGGAGUGA [Fam2.1 aminoacylation ribozyme variant] | 11.8 | 5.12 | 5.28 | 11.4 | 11.1
AAAUUUGCUAAUAGUAGCAAG [Fam3.1 aminoacylation ribozyme variant] | 1.96 | 1.59 | 1.27 | 1.26 | 1.38
AUUCACCUACUUCAUCGGGUG [Fam2.2 aminoacylation ribozyme variant] | 0.81 | 0.925 | 1.06 | 0.992 | 1.06
AAGUUGGCUAAUAGUCCCAAG [Fam3.1 aminoacylation ribozyme variant] | 1.02 | 1.34 | 1.14 | 1.06 | 1.17
AUUCACCUGGGUCAUCGUGUG [Fam2.2 aminoacylation ribozyme variant] | 1 | 0.9 | 1.26 | 1.17 | 1.03
GAGUUUGCUGAUAGUCGCAAG [Fam3.1 aminoacylation ribozyme variant] | 1.95 | 1.68 | 1.5 | 1.19 | 1.31
UUACUUCGAACAAUCGGUCUG [Fam1A.1 aminoacylation ribozyme variant] | 1.56 | 1.29 | 1.1 | 1.28 | 1.24
AAGUUUCCAAAUAGUCGCAAG [Fam3.1 aminoacylation ribozyme variant] | 1.76 | 1.62 | 1.22 | 1.65 | 1.03
AAGUUUGCUCAUAGUCGCAGG [Fam3.1 aminoacylation ribozyme variant] | 1.59 | 1.35 | 1.32 | 1.91 | 1.43
CUACUUCAAAGAAUCGGUCUC [Fam1A.1 aminoacylation ribozyme variant] | 3.26 | 0.811 | 0.789 | 0.874 | 0.787
AAUUUUGCUAAUAAUCGCAAG [Fam3.1 aminoacylation ribozyme variant] | 1.54 | 1.85 | 1.33 | 1.08 | 1.51
CCACACAUCAAUCAAUCGGUC [Fam1B.1 aminoacylation ribozyme variant] | 1.4 | 0.842 | 0.922 | 0.682 | 0.777
CGACUGCAAACAAUCGGUCUG [Fam1A.1 aminoacylation ribozyme variant] | 1.81 | 1.73 | 1.39 | 1.7 | 1.26
AAGUUUGCUAAUAAUCGCAAC [Fam3.1 aminoacylation ribozyme variant] | 1.18 | 0.8 | 0.975 | 0.773 | 1.06
CCACACUUCAAGCAACCGGGC [Fam1B.1 aminoacylation ribozyme variant] | 4.79 | 2.77 | 3.18 | 3.43 | 2
CCACACUUCAAGCAAUCCCUC [Fam1B.1 aminoacylation ribozyme variant] | 1.35 | 1.04 | 1.15 | 0.729 | 0.846
AUUCACCGAGGUCAUCGUGUG [Fam2.2 aminoacylation ribozyme variant] | 1.04 | 0.992 | 0.939 | 1.15 | 1.21

Sequence | self-aminoacylation (biotinyl-Trp-oxazolone) | self-aminoacylation (biotinyl-Ile-oxazolone) | self-aminoacylation (biotinyl-Val-oxazolone) | self-aminoacylation (biotinyl-Leu-oxazolone) | self-aminoacylation (biotinyl-Met-oxazolone)
CAACUUAAAACAAUCGGUCUG [Fam1A.1 aminoacylation ribozyme variant] | 0.948 | 0.984 | 1.14 | 1.11 | 1.09
AUUACCCUGGUGAUCGACUGA [Fam2.1 aminoacylation ribozyme variant] | 0.743 | 1.05 | 1.02 | 1.12 | 0.951
AAAUUUGCUAAUAGUCGCAGG [Fam3.1 aminoacylation ribozyme variant] | 3.16 | 1.97 | 1.79 | 2.47 | 2.11
CCACUGCAAACAAUCGGUCUG [Fam1A.1 aminoacylation ribozyme variant] | 1.27 | 1.01 | 1.39 | 1.06 | 1.16
CUAGUUCAAACAAUCGGUCCG [Fam1A.1 aminoacylation ribozyme variant] | 0.582 | 0.787 | 0.649 | 0.745 | 0.742
CUUUCCCUGGUCAUCGAGUGA [Fam2.1 aminoacylation ribozyme variant] | 10.6 | 4.62 | 5.04 | 8.95 | 8.78
CUACUUCAAACUACCGGUCUG [Fam1A.1 aminoacylation ribozyme variant] | 0.846 | 1.1 | 0.832 | 0.868 | 0.809
CUCCUUCAAACAGUCGGUCUG [Fam1A.1 aminoacylation ribozyme variant] | 1.31 | 0.941 | 1.26 | 0.959 | 1.24
AUUACCGUGGUCAUCGGGUGA [Fam2.1 aminoacylation ribozyme variant] | 17.3 | 7.08 | 8.1 | 11.9 | 11.7
AUUACCCUCGUCAUCGAGUGA [Fam2.1 aminoacylation ribozyme variant] | 3.22 | 2.08 | 2.07 | 3.09 | 2.98
AUUCACCAAGGGCAUCGGGUG [Fam2.2 aminoacylation ribozyme variant] | 4.74 | 4.37 | 5.01 | 6.01 | 5.2
CUACUUCAAACAAUCCGUCGG [Fam1A.1 aminoacylation ribozyme variant] | 0.636 | 0.947 | 0.98 | 0.901 | 0.867
AUUCACCUAGUUCAUCGGGUU [Fam2.2 aminoacylation ribozyme variant] | 1.66 | 1.38 | 1.61 | 1.28 | 1.46
AAGUAUGCUAAUAGUCGCUAG [Fam3.1 aminoacylation ribozyme variant] | 1.41 | 1.17 | 0.937 | 1.21 | 1.02
CCACAUUUCAAGAAAUCGGUC [Fam1B.1 aminoacylation ribozyme variant] | 1.83 | 1.12 | 1.05 | 1.05 | 1.26
AUUAGCCUGAUCAUCGAGUGA [Fam2.1 aminoacylation ribozyme variant] | 11 | 4.82 | 4.4 | 10.6 | 10.4
AAGUUUGCUUAUAGUCGCAGG [Fam3.1 aminoacylation ribozyme variant] | 1.5 | 1.34 | 1.43 | 1.99 | 1.3
AAGUAGGCUAAUAGUCGCAAG [Fam3.1 aminoacylation ribozyme variant] | 1.91 | 1.88 | 1.24 | 1.39 | 1.11
